Test results as given in patent US20170189504A1, “NOVEL PEPTIDES AND COMBINATION OF PEPTIDES FOR USE IN IMMUNOTHERAPY AGAINST VARIOUS CANCERS” (immatics biotechnologies GmbH, priority 2015, published 2017).
For some assays here: For expression read-outs the peptide stands for its source gene, whose mRNA was measured; the gene is not named for every peptide.

Assays:
HLA-A*24 = assay: Identification and relative LC-MS quantitation of HLA-A*24-presented tumor-associated peptides on tissue samples (presentation profiles, Tables 14A, 14B, 16, FIG. 1); set-up: species or system human; key to Presentation score GC / Presentation score NSCLC / Presentation score PCA / Presentation score GB / Presentation score HCC / Presentation score RCC: specifically presented on tumors (++++); very highly over-presented on tumors compared to a panel of normal tissues (+++); highly over-presented on tumors compared to a panel of normal tissues (++); over-presented on tumors compared to a panel of normal tissues (+); details: for Presentation score NSCLC: non-small cell lung cancer (N = 91) vs panel of normal tissues (N = 70); for Peptide Presentation on cancer entities: Table 14A, HLA-A*24-binding tumor-associated peptides, cancer entities on which the peptide was found presented; for Presentation score GC: gastric cancer (N = 44) vs panel of normal tissues (N = 70)
source genes (mRNA) [1] = assay: Gene and exon expression of source genes, TCGA tumor samples compared with normal tissue samples (Lonsdale, 2013) (Table 17); set-up: species or system human; details: for Over-expression category of source gene (target coverage), BLCA: BLCA = Bladder urothelial carcinoma (N = 408); for Over-expression category of source gene (target coverage), BRCA: BRCA = Breast cancer (N = 1104), tumors more than 2-fold above highest 75% percentile of normal tissues; for Over-expression category of source gene (target coverage), CHOL: CHOL = Cholangiocarcinoma (N = 36); for Over-expression category of source gene (target coverage), COAD: COAD = Colon and rectal adenocarcinoma (N = 462); for Over-expression category of source gene (target coverage), DLBC: DLBC = Lymphoid neoplasm diffuse large B-cell lymphoma (N = 48); for Over-expression category of source gene (target coverage), ESCA: ESCA = Esophageal cancer (N = 185); for Over-expression category of source gene (target coverage), KIRC: KIRC = Clear cell kidney carcinoma (N = 534); for Over-expression category of source gene (target coverage), KIRP: KIRP = Papillary kidney carcinoma (N = 291); for Over-expression category of source gene (target coverage), LAML: LAML = Acute Myeloid Leukemia (N = 173); for Over-expression category of source gene (target coverage), LGG: LGG = Lower grade glioma (N = 534); for Over-expression category of source gene (target coverage), LUAD: LUAD = Lung adenocarcinoma (N = 517); for Over-expression category of source gene (target coverage), LUSC: LUSC = Lung squamous cell carcinoma (N = 503); for Over-expression category of source gene (target coverage), OV: OV = Ovarian serous cystadenocarcinoma (N = 309); for Over-expression category of source gene (target coverage), READ: READ = Colon and rectal adenocarcinoma (N = 167); for Over-expression category of source gene (target coverage), SKCM: SKCM = Skin cutaneous melanoma (N = 473); for Over-expression category of source gene (target coverage), STAD: STAD = Stomach adenocarcinoma (N = 415); for Over-expression category of source gene (target coverage), UCEC: UCEC = Uterine corpus endometrial carcinoma (N = 546); for Over-expression category of source gene (target coverage), PAAD: PAAD = Pancreatic ductal adenocarcinoma (N = 179); for Over-expression category of source gene (target coverage), PRAD: PRAD = Prostate adenocarcinoma (N = 498)
source genes (mRNA) [2] = assay: Expression profiling of source genes by in-house RNASeq of tumor and normal tissues (Table 18, FIG. 2); set-up: species or system human; key: very highly over-expressed in tumors compared to a panel of normal tissues (+++); highly over-expressed in tumors compared to a panel of normal tissues (++); over-expressed in tumors compared to a panel of normal tissues (+); details: source gene of peptide; for Expression score OSCAR: esophageal cancer incl. gastric-esophageal junction (N = 11) vs panel of normal tissues; for Expression score GB: glioblastoma (N = 24) vs panel of normal tissues; for Expression score NSCLC: non-small cell lung cancer (N = 11) vs panel of normal tissues; for Expression score OC: ovarian cancer (N = 12) vs panel of normal tissues; for Expression score SCLC: small cell lung cancer (N = 10) vs panel of normal tissues

| Substance | Presentation score NSCLC (HLA-A*24; HLA-A*24 peptides) | Peptide Presentation on cancer entities (HLA-A*24) | Over-expression category of source gene (target coverage), BLCA (source genes (mRNA) [1]; same cutoff) | Over-expression category of source gene (target coverage), BRCA (source genes (mRNA) [1]) | Over-expression category of source gene (target coverage), CHOL (source genes (mRNA) [1]; same cutoff) | Over-expression category of source gene (target coverage), COAD (source genes (mRNA) [1]; same cutoff) | Over-expression category of source gene (target coverage), DLBC (source genes (mRNA) [1]; same cutoff) | Over-expression category of source gene (target coverage), ESCA (source genes (mRNA) [1]; same cutoff) | Over-expression category of source gene (target coverage), KIRC (source genes (mRNA) [1]; same cutoff) | Over-expression category of source gene (target coverage), KIRP (source genes (mRNA) [1]; same cutoff) | Over-expression category of source gene (target coverage), LAML (source genes (mRNA) [1]; same cutoff) | Over-expression category of source gene (target coverage), LGG (source genes (mRNA) [1]; same cutoff) | Over-expression category of source gene (target coverage), LUAD (source genes (mRNA) [1]; same cutoff) | Over-expression category of source gene (target coverage), LUSC (source genes (mRNA) [1]; same cutoff) | Over-expression category of source gene (target coverage), OV (source genes (mRNA) [1]; same cutoff) | Over-expression category of source gene (target coverage), READ (source genes (mRNA) [1]; same cutoff) | Over-expression category of source gene (target coverage), SKCM (source genes (mRNA) [1]; same cutoff) | Over-expression category of source gene (target coverage), STAD (source genes (mRNA) [1]; same cutoff) | Over-expression category of source gene (target coverage), UCEC (source genes (mRNA) [1]; same cutoff) | Expression score OSCAR (source genes (mRNA) [2]) | also measured |
| --- | --- | --- | --- | --- | --- | --- | --- | --- | --- | --- | --- | --- | --- | --- | --- | --- | --- | --- | --- | --- | --- |
| 192: peptide found in TYMS (gene looked up) (SYALLTYMI; listed as Homo sapiens) [compound 192] | ++++ | NSCLC | B (>= 20% of tumors above the cutoff, but <50%) | B (>= 20% of tumors above the cutoff, but <50%) | C (>=5% of tumors above the cutoff, but <20%) | B (>= 20% of tumors above the cutoff, but <50%) | A (>=50% of tumors above the cutoff) | B (>= 20% of tumors above the cutoff, but <50%) | B (>= 20% of tumors above the cutoff, but <50%) | B (>= 20% of tumors above the cutoff, but <50%) | A (>=50% of tumors above the cutoff) | C (>=5% of tumors above the cutoff, but <20%) | C (>=5% of tumors above the cutoff, but <20%) | B (>= 20% of tumors above the cutoff, but <50%) | B (>= 20% of tumors above the cutoff, but <50%) | B (>= 20% of tumors above the cutoff, but <50%) | A (>=50% of tumors above the cutoff) | B (>= 20% of tumors above the cutoff, but <50%) | A (>=50% of tumors above the cutoff) | + | Over-expression category of source gene (target coverage), GBM (source genes (mRNA) [1]; GBM = Glioblastoma multiforme (N = 169), same cutoff): A (>=50% of tumors above the cutoff); Over-expression category of source gene (target coverage), LIHC (source genes (mRNA) [1]; LIHC = Liver hepatocellular carcinoma (N = 374), same cutoff): C (>=5% of tumors above the cutoff, but <20%); Expression score AML (source genes (mRNA) [2]; acute myeloid leukemia (N = 11) vs panel of normal tissues): +; Expression score GB (source genes (mRNA) [2]): +; Expression score NHL (source genes (mRNA) [2]; non-Hodgkin lymphoma (N = 10) vs panel of normal tissues): ++; Expression score NSCLC (source genes (mRNA) [2]): +; Expression score OC (source genes (mRNA) [2]): +; Expression score SCLC (source genes (mRNA) [2]): +++; Expression score UBC (source genes (mRNA) [2]; urinary bladder cancer (N = 10) vs panel of normal tissues): + |
| 199: peptide found in NANS (gene looked up) (RYAEEVGIF; listed as Homo sapiens) [compound 199] |  | GC, NSCLC, HCC, PCA | B (>= 20% of tumors above the cutoff, but <50%) | A (>=50% of tumors above the cutoff) | C (>=5% of tumors above the cutoff, but <20%) | A (>=50% of tumors above the cutoff) | A (>=50% of tumors above the cutoff) | C (>=5% of tumors above the cutoff, but <20%) |  |  |  |  | C (>=5% of tumors above the cutoff, but <20%) | C (>=5% of tumors above the cutoff, but <20%) | C (>=5% of tumors above the cutoff, but <20%) | A (>=50% of tumors above the cutoff) | B (>= 20% of tumors above the cutoff, but <50%) | B (>= 20% of tumors above the cutoff, but <50%) | B (>= 20% of tumors above the cutoff, but <50%) |  | Presentation score GC (HLA-A*24; HLA-A*24 peptides): +; Presentation score PCA (HLA-A*24; HLA-A*24 peptides, prostate cancer (N = 40) vs panel of normal tissues (N = 70)): ++; Over-expression category of source gene (target coverage), PAAD (source genes (mRNA) [1]; same cutoff): B (>= 20% of tumors above the cutoff, but <50%); Over-expression category of source gene (target coverage), PRAD (source genes (mRNA) [1]; same cutoff): A (>=50% of tumors above the cutoff); Expression score PCA (source genes (mRNA) [2]; prostate cancer and benign prostate hyperplasia (N = 5) vs panel of normal tissues): + |
| 200: peptide found in HUWE1 (gene looked up) (YYGPSLFLL; listed as Homo sapiens) [compound 200] | + | GC, NSCLC, RCC |  | B (>= 20% of tumors above the cutoff, but <50%) |  | C (>=5% of tumors above the cutoff, but <20%) |  | A (>=50% of tumors above the cutoff) | B (>= 20% of tumors above the cutoff, but <50%) | C (>=5% of tumors above the cutoff, but <20%) | A (>=50% of tumors above the cutoff) | B (>= 20% of tumors above the cutoff, but <50%) | C (>=5% of tumors above the cutoff, but <20%) | C (>=5% of tumors above the cutoff, but <20%) | B (>= 20% of tumors above the cutoff, but <50%) | C (>=5% of tumors above the cutoff, but <20%) | B (>= 20% of tumors above the cutoff, but <50%) | A (>=50% of tumors above the cutoff) | C (>=5% of tumors above the cutoff, but <20%) | + | Presentation score GC (HLA-A*24; HLA-A*24 peptides): +; Over-expression category of source gene (target coverage), KICH (source genes (mRNA) [1]; KICH = Kidney chromophobe (N = 66), same cutoff): C (>=5% of tumors above the cutoff, but <20%); Over-expression category of source gene (target coverage), PAAD (source genes (mRNA) [1]; same cutoff): C (>=5% of tumors above the cutoff, but <20%); Over-expression category of source gene (target coverage), PRAD (source genes (mRNA) [1]; same cutoff): C (>=5% of tumors above the cutoff, but <20%); Expression score BRCA (source genes (mRNA) [2]; BRCA tumors vs panel of normal tissues): +; Expression score GB (source genes (mRNA) [2]): +; Expression score NSCLC (source genes (mRNA) [2]): +; Expression score OC (source genes (mRNA) [2]): +; Expression score SCLC (source genes (mRNA) [2]): + |
